Experimental data from US12258571B2, “Methods and compositions for inducible expression of neurotrophic factors” (CEDARS-SINAI MEDICAL CENTER, priority 2018, dated 2025).
For at least one compound, name, drawing or mass did not settle the structure.

What was measured:
GDNF [1] = assay: Blinded postmortem GDNF scoring (DAB stain) of transplanted tissue; type: in vivo, NOD-SCID mice
Procedure: In all experiments, dox solution was maintained in light protection and 4° C. For cell culture, dox (Clontech 631311) was added to culture media at 100 ng/ml. For in vivo work, animals were administered dox (15 μg dox/g weight) every 3-4 days by oral gavage (e.g. 60 μl for a 20 g animal), using a soft-tipped feeding needle (Instech FTP-20-30; Plymouth Meeting, PA) attached to a 1 ml syringe (BD 309659; Franklin Lakes, NJ). Nucleofected iNPCs, which underwent two rounds of FACS for BFP, were transplanted into the striatum (41 of cells at 100,000 cells/μ1 into each hemisphere) of 6-month old NOD-SCID mice (Nod.cb17-Prkdc^scid/J, Jackson Lab #1303; Bar Harbor, ME). Three days before transplantation, a subset of cells was treated with dox. For transplantation, cells were dissociated and diluted to a final concentration of 100,000 cells/μl in conditioned media, and maintained on ice. Animals were anesthetized with isoflurane and placed in a stereotaxic frame. Cells were injected bilaterally relative to bregma at 0.7 mm rostral and +/−2.0 mm lateral. A 5 μl Hamilton microsyringe backfilled with PBS was loaded with 2 μl of cell solution and inserted to a depth of −4.00 mm. The microsyringe was then raised to −3.50 mm and the cell solution was injected at 1 μl/min. […] Images were scored based on stain intensity of DAB GDNF stain by an observer blinded to the experiment conditions (dox vs no dox). […]

TRE-Bi promoter [2] = assay: Dual-luciferase assay in nucleofected iNPCs; type: cell-based, human; conditions: after dox withdrawal
Procedure: In all experiments, dox solution was maintained in light protection and 4° C. For cell culture, dox (Clontech 631311) was added to culture media at 100 ng/ml. For in vivo work, animals were administered dox (15 μg dox/g weight) every 3-4 days by oral gavage (e.g. 60 μl for a 20 g animal), using a soft-tipped feeding needle (Instech FTP-20-30; Plymouth Meeting, PA) attached to a 1 ml syringe (BD 309659; Franklin Lakes, NJ). To quantitatively assess reporter expression from the TRE-Bi promoter, iNPCs were nucleofected as above, along with an Ef1-Renilla plasmid that constitutively expresses Renilla luciferase for protein normalization. […] To assess the kinetics of the TRE-Bi inducible promoter, firefly luciferase activity was quantified in a live culture of the nucleofected iNPCs grown in the presence of beetle luciferin (FIG. 1F). […] As a clinically-relevant cell product would need to be expanded and banked, the Inventors assessed if the TRE-Bi promoter would remain functionally responsive with an extensive cell expansion and freeze.

TRE-Bi promoter [3] = assay: Live unstained fluorescent imaging of nucleofected iNPC neurospheres; type: cell-based, human; conditions: within 24 hours of adding dox
[4] = tested on: firefly luciferase (Luc2P) in transplanted iNPCs; assay: Weekly bioluminescence imaging of iNPC transplants; type: in vivo, NOD-SCID mice
GDNF [5] = assay: GDNF ELISA of media from nucleofected iNPCs; type: cell-based, human; conditions: presence of dox, 24 hours
mpClover = assay: Green fluorescence imaging of AAVS1-targeted single copy cells; type: cell-based, human
GDNF [6] = assay: Fluorescent immunohistochemistry of transplants at endpoint; type: in vivo, NOD-SCID mice; conditions: animal ending on dox versus littermate ending off dox
GDNF [7] = assay: Immunocytochemistry of nucleofected iPSC-derived NPCs; type: cell-based, human

## C[C@H]1c2cccc(O)c2C(=O)C2=C(O)[C@]3(O)C(=O)C(C(N)=O)=C(O)[C@@H](N(C)C)[C@@H]3[C@@H](O)[C@@H]21 [dox, doxycycline]
GDNF [1]; all animals that ended the trial on dox, except Animal #8
  GDNF signal, blinded analysis: exhibited increased GDNF signal
GDNF [1]; animals that ended the trial off dox
  GDNF signal, blinded analysis: none of the animals that ended the trial off dox exhibited GDNF signal
TRE-Bi promoter [2]
  firefly luciferase activity (normalized to Renilla) upon dox withdrawal: returned to near basal levels
TRE-Bi promoter [3]
  reporter expression of spheres: expressed both BFP^+ and GFP^+
[4]; 15 μg dox/g by oral gavage every 3-4 days, multiple ON/OFF cycles over 7 weeks
  regulation of luciferase by dox administration and withdrawal: effectively regulated the luciferase protein in vivo
[4]; ten animals transplanted with cells pre-treated with dox for three days, Week 0
  luciferase signal one day after transplantation: emitted luciferase signal above background
GDNF [5]
  GDNF level by ELISA: robust levels of GDNF
mpClover; 24 hours after addition of dox, AAVS1 landing-site cells with donor plasmid
  mpClover induction: inducibility of mpClover
mpClover; absence of dox
  GFP expression in the absence of dox: absence of GFP “leakiness”
GDNF [6]
  Clover and GDNF in striatal transplants: Clover and GDNF were only detected in the dox animal
GDNF [7]; dox subsequently removed
  GDNF and reporter immunofluorescence after dox removal: GDNF and reporter gene production all ceased
GDNF [7]; presence of dox
  GDNF and reporter immunofluorescence: GDNF as well as Clover and luciferase were detected
